According to US5770410A, “Chiral synthesis with modified enzymes” (Genzyme Corporation, priority 1992, dated 1998):
At least one structure is not confirmed: it was looked up by name or label, or the drawing left a doubt.

Chains of the proteins cited; added tags and fusions are not shown.
UniProt P00344, whole entry C81T/A222G/A223G: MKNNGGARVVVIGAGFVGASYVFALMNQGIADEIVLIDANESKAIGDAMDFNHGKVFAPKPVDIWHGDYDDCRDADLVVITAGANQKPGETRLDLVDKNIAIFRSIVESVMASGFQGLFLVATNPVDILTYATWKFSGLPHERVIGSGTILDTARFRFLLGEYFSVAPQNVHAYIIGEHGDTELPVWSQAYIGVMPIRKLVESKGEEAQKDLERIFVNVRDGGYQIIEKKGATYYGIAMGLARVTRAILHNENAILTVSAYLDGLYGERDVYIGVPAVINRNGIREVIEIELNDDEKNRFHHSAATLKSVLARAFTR
UniProt P00344, whole entry A222G/A223G: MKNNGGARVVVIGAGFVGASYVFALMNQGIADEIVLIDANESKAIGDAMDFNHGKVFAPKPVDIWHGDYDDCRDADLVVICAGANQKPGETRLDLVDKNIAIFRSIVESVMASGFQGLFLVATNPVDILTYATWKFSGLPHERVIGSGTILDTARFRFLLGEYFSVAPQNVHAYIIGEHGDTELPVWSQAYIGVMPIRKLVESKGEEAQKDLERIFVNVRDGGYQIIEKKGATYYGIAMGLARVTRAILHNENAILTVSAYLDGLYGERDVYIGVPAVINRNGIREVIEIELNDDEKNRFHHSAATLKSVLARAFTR

Experiments:
Test in all cases: Steady-state kinetics, NADH-dependent reduction of 2-oxo acids (A340)
Assay type in all cases: biochemical
[1] = system: Bacillus stearothermophilus lactate dehydrogenase loop exchange mutant BIG LOOP (loop SEQ ID No: 10); conditions: 25° C., pH 6
Description: (§1) Each pair of overlapping oligonucleotides (20 μM of each) were subjected to 30 cycles of annealing and extension (94° C. for 1 minute, cool to 45° C. for 2 minutes, 45° C. for 1 minute, heat to 72° C. in 1 minute, 72° C. for 1 minute in 50 μl containing 0.05M KCl , 10 mM Tris pH 8.3, 1.5 mM MgCl2, 0.01% gelatin), 200 μM of each dNTP and 2.5 units TAQ DNA polymerase). The double-stranded DNA product was purified and then cut with SacII and XbaI before ligating it into the plasmid pLDHrs cut with the same enzymes. The ligated products were restricted with MluI to cleave wild-type plasmid pLDHrs.
(§2) Overnight cultures (11) were centrifuged and the packed cells were resuspended in 50 mM triethanolamine, pH 6.0. The cells were sonicated and the debris was removed by centrifugation. The protein in the supernatant was precipitated by the addition of 65% ammonium sulphate. The precipitate was spun down and resuspended in 50 mM triethanolamine, pH 6.0 and dialysed against the same buffer. After dialysis, NADH and FBP were added to the protein to final concentrations of 5 mM and 10 mM before loading onto an oxamate Sepharose column which had been pre-equilibrated with 50 mM triethanoloamine, pH 6.0, 3 mM NADH and 5 mM FBP. After washing off unbound protein with column buffer mutant LDH was eluted with 50 mM triethanolamine, pH 9.0, 0.3 M NaCl. The elutant was precipitated with 65% ammonium sulphate and then resuspended in and dialysed against 50 mM triethanolamine, pH 7.5. The protein was then loaded onto a Q-Sepharose Fast Flow column and eluted with a salt gradient. LDH eluted at a concentration of 0.25M NaCl. For the double glycine mutant enzyme, the first chromatography procedure with oxamate Sepharose was replaced by chromatography on Blue Sepharose -F3GA, otherwise the procedure was essentially the same. All proteins were judged to be greater than 98% pure from the intensity of Coomassie blue staining on an SDS Phast gel (Pharmacia). The yield of protein was usually 0.2 g/l of original broth.
(§3) Steady-state measurements were made by following the reduction in absorbance at 340 nm in the NADH/NAD^+ conversion. All assays were at 25° C. in the buffer Bis-Tris, pH 6, (20 mM), containing KC1 (50 mM) and when used fructose-1,6-bisphosphate at 5 mM. Protein concentration was determined from the absorbance at 280 nm using the value of 0.91 for 1 mg/ml protein in 1 cm path and an Mr of 33,000.
(§4) The specific substrates used in the evaluations are shown in the left column of Table 4. In Table 4, "235/6GG" denotes the mutant enzyme formed by substituting GlyGly for AlaAla at the 235-236 positions of the enzyme (Wilks et al., Biochemistry 1990, 29, 8587-8591), and "WTrs" denotes a mutant derived from the wild-type strain as shown in FIG. 1 of Wilks et al., Biochemistry 1992, 31, 7802-7806.

[2] = target: T1, Bacillus stearothermophilus lactate dehydrogenase loop exchange mutant SL1 (short loop) (Geobacillus stearothermophilus, UniProt P00344, A222G/A223G/C81T, form not given); conditions: 25° C., pH 6
T1 construct: purified; +/- FBP
Description: as §1, §2, §3, §4

[3] = target: T2, Bacillus stearothermophilus lactate dehydrogenase loop exchange mutant SL2 (short loop) (Geobacillus stearothermophilus, UniProt P00344, A222G/A223G/C81T, form not given); conditions: 25° C., pH 6
T2 construct: purified; +/- FBP
Description: as §1, §2, §3, §4

[4] = target: T3, Bacillus stearothermophilus lactate dehydrogenase mutant 235/6GG (Ala235Gly, Ala236Gly) (Geobacillus stearothermophilus, UniProt P00344, A222G/A223G); conditions: +FBP (5 mM), 25° C., pH 6
T3 construct: made in house; host or cells: E. coli
Description: as §2, §3, §4

[5] = target: T4, Bacillus stearothermophilus lactate dehydrogenase, wild type, SEQ ID NO: 3 (Geobacillus stearothermophilus, UniProt P00344); conditions: for Km / kcat / kcat /KM: +FBP (5 mM), 25° C., pH 6
T4 construct: made in house; host or cells: E. coli
Description: as §2, §3, §4

SMILES | Km ([1]; +FBP (5 mM)) | kcat ([1]; +FBP (5 mM)) | kcat /KM ([1]; +FBP (5 mM)) | Km ([1]; -FBP) | kcat ([1]; -FBP) | kcat ([2]; +FBP (5 mM)) | kcat /KM ([2]; +FBP (5 mM)) | kcat ([2]; -FBP) | kcat ([3]; +FBP (5 mM)) | kcat /KM ([3]; +FBP (5 mM)) | kcat ([3]; -FBP) | kcat /KM ([3]; -FBP) | Km [4] | kcat [4] | kcat /KM [4] | Km [5] | kcat [5] | kcat /KM [5] | Kcat/Km for pyruvate relative to 2-oxo-4-phenyl propanoic acid ([5]; times better for pyruvate)
CCCCC(=O)C(=O)O [KETO CAPROATE, α-ketocaproate] | 20 mM | 6 s⁻¹ | 300 M⁻¹ s⁻¹ | 27 mM | 0.3 s⁻¹ | 0.8 s⁻¹ | 50 M⁻¹ s⁻¹ | 0.07 s⁻¹ | 0.1 s⁻¹ | 4 M⁻¹ s⁻¹ | 0.1 s⁻¹ | 1.6 M⁻¹ s⁻¹ | 5.6 mM | 240 s⁻¹ | 42000 M⁻¹ s⁻¹ | 3.4 mM | 29 s⁻¹ | 8500 M⁻¹ s⁻¹ | 
CC(C)CC(=O)C(=O)O [KETOISO CAPROATE, α-ketoisocaproate] | 18 mM | 0.3 s⁻¹ | 17 M⁻¹ s⁻¹ | 32 mM | 0.06 s⁻¹ | 0.07 s⁻¹ | 3.5 M⁻¹ s⁻¹ | 0.01 s⁻¹ | 0.9 s⁻¹ | 36 M⁻¹ s⁻¹ | 0.08 s⁻¹ | 2.6 M⁻¹ s⁻¹ | 15.4 mM | 1.74 s⁻¹ | 112 M⁻¹ s⁻¹ | 6.7 mM | 0.33 s⁻¹ | 50 M⁻¹ s⁻¹ | 
CC(=O)C(=O)O [PYRUVATE, pyruvate] | 42 mM | 0.2 s⁻¹ | 4.7 M⁻¹ s⁻¹ | 50 mM | 0.05 s⁻¹ | 0.2 s⁻¹ | 2500 M⁻¹ s⁻¹ | 0.1 s⁻¹ | 0.07 s⁻¹ | 1076 M⁻¹ s⁻¹ | 0.04 s⁻¹ | 80 M⁻¹ s⁻¹ | 4 mM | 167 s⁻¹ | 42000 M⁻¹ s⁻¹ | 0.06 mM |  |  | 230 times
